# Percent effect of library compounds

Measurements from “University of Dundee, Small-Polar-MMV Screening Library” (2021), ChEMBL document CHEMBL3988442.

T. brucei: 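Whole-parasite assay of Trypanosoma brucei over 72 hours; the read-out is not stated. Tested at 30 µM. Higher reads as stronger inhibition (inferred: compounds with an IC50 in retests scored well above the rest). Values scatter widely below zero; nearly all retest evidence comes from the higher of the two concentrations used. Of about 64,000 compounds tested this way, about 940 (1.5%) reached 50% or more in at least one test.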
Toxoplasma: 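Assay of Toxoplasma gondii numbers, read through their beta-galactosidase reporter with a colour substrate. Compounds at 10 µM. The record gives no direction; the compounds picked for IC50 retests had high values, so higher reads as fewer parasites. Of about 67,000 compounds tested this way, about 260 (0.38%) reached 50% or more in at least one test.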

Each number is a percent effect as filed.
The record does not define 0% and 100%; most values in the screen are far below 50% and negative numbers occur (in some assays of this library far below -100).
This is an unselected part of the compounds tested.

compound: CCCc1nc(N2CC[C@@H](c3ccc4c(c3)OCO4)[C@H](O)C2)no1
T. brucei: -8.027%
Toxoplasma: 8.876%

compound: Cc1nc2cc(OCc3nc(C(=O)NC(CO)CO)co3)ccc2s1
T. brucei: -23.15%
Toxoplasma: -3.812%

compound: NC(=O)C1=NC2=NS(=O)(=O)c3ccccc3N2N1Cc1ccc(Cl)cc1
T. brucei: 8.225%

compound: CCc1ccc(CN2CCC(CNC(=O)c3ccc(C)nc3)C2)nc1 (centres unmarked)
T. brucei: -32.27%
Toxoplasma: -13.71%

compound: O=C(COc1coc(CN2CCCCCC2)cc1=O)c1ccccc1
T. brucei: -22.49%
Toxoplasma: 1.257%

compound: c1ccc(CN2CCC(NCCSc3cnn[nH]3)C2)cc1 (centres unmarked)
T. brucei: 9.405%
Toxoplasma: 6.482%

compound: Cc1ccc(CN2CCOC3(CCCN(c4cccc(F)c4)C3)C2)o1.O=C(O)C(F)(F)F.O=C(O)C(F)(F)F (centres unmarked)
T. brucei: 98.9%
Toxoplasma: 20.09%

compound: Cc1nn(C)c(C)c1-c1ccnc(N(C)Cc2nc(C(C)C)no2)n1
T. brucei: -22.9%
Toxoplasma: 10.27%

compound: CCOC(=O)CSc1nnc([C@@H](N)C(C)C)o1.Cl
Toxoplasma: -9.595%

compound: Cc1nnc2n1CCN(C(C(=O)NC1CC1)c1ccc(F)cc1)C2 (centres unmarked)
T. brucei: -4.484%
Toxoplasma: 6.495%

compound: CCN1CCC(CC(=O)NCCc2nc(N)cc(O)n2)CC1
T. brucei: -18.73%
Toxoplasma: -0.9634%

compound: CC(=O)N(Cc1ncc(C)o1)C1CCN(CCCc2cnn(C)c2)C1 (centres unmarked)
T. brucei: -4.909%
Toxoplasma: 7.353%

compound: Cc1nn(C)c2nc(N(C)CC3CCN(CC(C)C)C3)sc12 (centres unmarked)
T. brucei: 16.43%
Toxoplasma: -8.051%

compound: CC(=O)N1CCc2[nH]c(=O)ccc2C1
T. brucei: -5.557%
Toxoplasma: 5.483%

compound: c1cc(CNCC2CNc3ccnn3C2)cc(OC2CCCC2)n1 (centres unmarked)
T. brucei: 16.86%
Toxoplasma: -50.3%

compound: Cc1nc(NCC(O)CN2CCCCCC2)c2c(C)nn(C)c2n1 (centres unmarked)
T. brucei: 21.1%
Toxoplasma: -12.48%

compound: [H][C@]12CC[C@]([H])(CN(Cc3cccc(-c4cccc(OC)c4)c3)C1)N(C)C2=O
T. brucei: -9.334%
Toxoplasma: 3.653%

compound: COC(=O)C(NC(=O)c1cc(F)cc(F)c1)c1cccnc1 (centres unmarked)
T. brucei: -54.74%
Toxoplasma: 10.83%

compound: O=C(NCCC(=O)N1CCCCCC1)c1c(O)cc(F)cc1F
T. brucei: 3.608%
Toxoplasma: 11.16%

compound: c1cnc(NCc2noc3c2CN(c2cnccn2)CC3)nc1
T. brucei: -41.15%
Toxoplasma: 11.56%

compound: O=C(O)CC(O)(CC(=O)O)C(=O)O.[H][C@]12CC[C@](O)(c3ccc(C)cn3)[C@@]1([H])CN(Cc1ccc(OC)cc1F)C2
T. brucei: 18.3%
Toxoplasma: 8.264%

compound: CN(Cc1cnccn1)C(=O)c1ccc(CSc2nnc[nH]2)o1
Toxoplasma: -8.183%

compound: c1cnc(N2CCN(Cc3nnnn3C3CC3)CC2)nc1
T. brucei: -12.66%
Toxoplasma: 0.8974%

compound: Cc1cccc(CN(C(=O)NCc2ccccn2)C2CC2)c1
T. brucei: -9.034%
Toxoplasma: 10.18%

compound: CN(C)c1cc(NCc2cnc3n2CCN(CC2CC2)CC3)ncn1.O=C(O)C(F)(F)F
T. brucei: -40.77%
Toxoplasma: -0.7979%

compound: O=C(NCCn1ccnc1)C1COCC(=O)N1Cc1ccccc1 (centres unmarked)
T. brucei: -15.66%
Toxoplasma: 9.071%

compound: O=C(CCc1nc(-c2ccccn2)no1)N1CCCC1c1ccsc1 (centres unmarked)
Toxoplasma: -4.279%

compound: [H][C@@]12C[C@H](C(=O)Nc3cnccn3)CN(S(C)(=O)=O)[C@]1([H])CCO2
T. brucei: -54.12%
Toxoplasma: -1.78%

compound: NC(=O)c1ccnc(N2CCCC(CO)(Cc3ccc(F)cc3)C2)c1 (centres unmarked)
T. brucei: -61.87%
Toxoplasma: 14.45%

compound: O=C(CCc1ccc(Cl)s1)N1CCCC(N2CCNC2=O)C1 (centres unmarked)
T. brucei: -22.15%
Toxoplasma: -20.04%

compound: COC(=O)c1ccc(CN[C@@H]2COC[C@H]2Cc2cc(C)no2)cc1.O=C(O)CC(O)(CC(=O)O)C(=O)O
T. brucei: -26.84%
Toxoplasma: 5.036%

compound: Cn1nccc1C(=O)N1CCC(n2cc(-c3ccsc3)nn2)CC1
T. brucei: -19.65%

compound: CCN(Cc1noc(CC(C)C)n1)Cc1cc2ccc(F)cc2[nH]c1=O
T. brucei: 34.26%
Toxoplasma: -18.94%

compound: COc1ccc(C[C@@H]2CC[C@H](CN(C)C3CCN(C)CC3)O2)cc1
T. brucei: 0.7225%
Toxoplasma: 5.175%

compound: CC(NC(=O)c1cc(-c2cccc(Cl)c2)no1)C(=O)N1CCCC1 (centres unmarked)
T. brucei: -13.59%
Toxoplasma: -0.1508%

compound: Cc1nc(C)n(CC(C)C(=O)N2CCC(CN3CCOCC3)CC2)n1 (centres unmarked)
T. brucei: -4.343%
Toxoplasma: -18.42%

compound: CCC(C)Oc1ccc(CNCCNS(C)(=O)=O)cc1Cl (centres unmarked)
T. brucei: 0.13%
Toxoplasma: 19.69%

compound: CCCc1ccc(C(=O)N2CCn3c(nnc3C(C)C)C2)cc1
T. brucei: 4.142%
Toxoplasma: 6.369%

compound: CC(C)C(C)(O)CNC(=O)Nc1ccccn1 (centres unmarked)
T. brucei: 0.9292%
Toxoplasma: 1.685%

compound: O=C(O)C(F)(F)F.[H][C@@]12CN(C(=O)C3CCOCC3)C[C@]1([H])OCCN2Cc1c(C)noc1C
T. brucei: -4.458%
Toxoplasma: 3.623%

compound: CC1CCCN(C(=O)CNC(=O)c2ccoc2)C1 (centres unmarked)
Toxoplasma: 21.8%

compound: Cc1ccc(-c2nc(CN3CCCC3Cn3cncn3)co2)cc1 (centres unmarked)
T. brucei: 4.733%
Toxoplasma: -13.88%

3 of the entries, repeated:

{"compound": "c1cnc(NCc2noc3c2CN(c2cnccn2)CC3)nc1", "T. brucei": -41.15, "Toxoplasma": 11.56}
{"compound": "Cc1nc2cc(OCc3nc(C(=O)NC(CO)CO)co3)ccc2s1", "T. brucei": -23.15, "Toxoplasma": -3.812}
{"compound": "Cc1nn(C)c(C)c1-c1ccnc(N(C)Cc2nc(C(C)C)no2)n1", "T. brucei": -22.9, "Toxoplasma": 10.27}